Measurements published in patent EP3222712A1, “ALCOHOL DEHYDROGENASE FROM PICHIA PASTORIS AND USE THEREOF” (priority 2016, dated 2017).

Test system: alcohol dehydrogenase from Pichia pastoris (PPADH)
Experiment: biotransformation by purified PPADH with GDH co-factor regeneration, gas chromatography
Format: biochemical
Conditions: 2 hours reaction time; for ee: acetophenone derivatives, alcohol formed

SMILES | enantiomer of the alcohol formed (acetophenone) | ee
CC(=O)c1ccccc1 [acetophenone] | (S) | 
O=C(c1ccc(Cl)cc1)C(F)(F)F [4'-Chloro-2,2,2-trifluoro acetophenone] |  | 63.8%
O=C(c1ccccc1)C(F)(F)F [2,2,2-Trifluoroacetophenone] |  | 29.5%
